{"source": "patent US20230116688A1", "about": "(SPLICEBIO S L, published 2023)", "target": "T1, EGFP-71-CfaC", "T1 chain": "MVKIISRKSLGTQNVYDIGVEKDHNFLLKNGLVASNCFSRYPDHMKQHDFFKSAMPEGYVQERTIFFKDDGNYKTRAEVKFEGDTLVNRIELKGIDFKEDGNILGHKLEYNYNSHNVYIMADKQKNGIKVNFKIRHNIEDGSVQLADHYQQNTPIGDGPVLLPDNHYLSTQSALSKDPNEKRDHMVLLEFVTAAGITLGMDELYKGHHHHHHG", "test": "cell-based or functional assay"}
{"binder": "EGFP-71-CfaN (other) MVSKGEELFTGVVPILVELDGDVNGHKFSVSGEGEGDATYGKLTLKFICTTGKLPVPWPTLVTTLTYGVQCLSYDTEILTVEYGFLPIGKIVEERIECTVYTVDKNGFVYTQPIAQWHNRGEQEVFEYCLEDGSIIRATKDHKFMTTDGQMLPIDEIFERGLDLKQVDGLPGHHHHHHG", "values": [{"measurement": "EGFP reconstitution by protein trans-splicing in co-transfected HEK293 cells, fold increase relative to the Npu intein pair", "value": 2.5, "unit": "fold"}, {"measurement": "Mean Fluorescence Intensity (MFI) of reconstituted EGFP, flow cytometry of co-transfected HEK293 cells, relative to full length EGFP", "value": "> 90 % of full length EGFP signal"}]}
